# ± gives the standard deviation of the averaged measurements. The list shows a part of the results, in another mix than the full data.
# Amino acid sequences for entries named in this document (tags omitted). A change or cut given only in a name is not applied to a line headed by its entry.
# UniProt O43237, whole entry: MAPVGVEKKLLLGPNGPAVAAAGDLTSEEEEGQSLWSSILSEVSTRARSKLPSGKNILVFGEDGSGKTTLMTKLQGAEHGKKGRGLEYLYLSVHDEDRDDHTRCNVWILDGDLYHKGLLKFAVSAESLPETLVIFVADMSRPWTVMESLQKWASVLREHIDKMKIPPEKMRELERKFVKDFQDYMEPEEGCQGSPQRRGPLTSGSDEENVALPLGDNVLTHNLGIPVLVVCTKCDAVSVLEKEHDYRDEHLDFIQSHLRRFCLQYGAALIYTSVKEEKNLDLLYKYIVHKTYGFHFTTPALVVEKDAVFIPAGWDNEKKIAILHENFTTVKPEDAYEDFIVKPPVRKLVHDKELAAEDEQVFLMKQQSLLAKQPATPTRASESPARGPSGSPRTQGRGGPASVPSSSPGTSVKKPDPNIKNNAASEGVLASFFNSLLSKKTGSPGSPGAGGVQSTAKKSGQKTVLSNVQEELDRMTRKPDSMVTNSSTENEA
# UniProt O00186: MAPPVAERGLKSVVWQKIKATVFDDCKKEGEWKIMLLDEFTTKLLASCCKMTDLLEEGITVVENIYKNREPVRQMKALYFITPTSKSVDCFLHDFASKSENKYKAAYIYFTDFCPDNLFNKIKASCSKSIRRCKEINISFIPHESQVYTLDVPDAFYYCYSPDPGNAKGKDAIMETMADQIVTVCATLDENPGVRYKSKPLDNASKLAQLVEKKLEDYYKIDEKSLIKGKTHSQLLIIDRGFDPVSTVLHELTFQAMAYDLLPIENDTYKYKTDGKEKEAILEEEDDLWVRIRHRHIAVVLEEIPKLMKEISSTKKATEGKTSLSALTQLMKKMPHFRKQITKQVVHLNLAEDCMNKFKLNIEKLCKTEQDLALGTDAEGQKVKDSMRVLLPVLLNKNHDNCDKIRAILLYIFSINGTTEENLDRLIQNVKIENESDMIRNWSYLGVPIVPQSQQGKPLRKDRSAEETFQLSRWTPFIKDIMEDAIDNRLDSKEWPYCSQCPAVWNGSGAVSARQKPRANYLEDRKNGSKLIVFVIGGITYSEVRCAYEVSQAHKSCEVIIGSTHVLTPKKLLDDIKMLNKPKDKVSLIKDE
# UniProt O14523: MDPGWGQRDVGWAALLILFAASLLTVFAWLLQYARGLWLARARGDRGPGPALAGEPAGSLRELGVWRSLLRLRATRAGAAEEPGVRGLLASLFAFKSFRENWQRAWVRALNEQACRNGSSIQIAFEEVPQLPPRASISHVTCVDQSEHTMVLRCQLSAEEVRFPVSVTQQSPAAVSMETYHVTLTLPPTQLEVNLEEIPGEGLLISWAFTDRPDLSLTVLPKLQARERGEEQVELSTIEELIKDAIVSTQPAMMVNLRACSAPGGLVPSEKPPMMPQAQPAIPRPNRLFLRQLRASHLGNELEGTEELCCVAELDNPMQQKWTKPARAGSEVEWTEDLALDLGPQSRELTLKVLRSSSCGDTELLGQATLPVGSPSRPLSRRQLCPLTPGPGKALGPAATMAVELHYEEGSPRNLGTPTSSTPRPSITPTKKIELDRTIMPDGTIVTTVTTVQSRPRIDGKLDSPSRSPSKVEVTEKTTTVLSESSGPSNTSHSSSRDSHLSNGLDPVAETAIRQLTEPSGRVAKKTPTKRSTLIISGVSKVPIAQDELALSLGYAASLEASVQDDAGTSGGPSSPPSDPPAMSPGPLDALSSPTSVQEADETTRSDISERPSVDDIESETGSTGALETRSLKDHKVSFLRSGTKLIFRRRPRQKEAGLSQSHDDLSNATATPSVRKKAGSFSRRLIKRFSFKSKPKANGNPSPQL
# UniProt Q8WVC6: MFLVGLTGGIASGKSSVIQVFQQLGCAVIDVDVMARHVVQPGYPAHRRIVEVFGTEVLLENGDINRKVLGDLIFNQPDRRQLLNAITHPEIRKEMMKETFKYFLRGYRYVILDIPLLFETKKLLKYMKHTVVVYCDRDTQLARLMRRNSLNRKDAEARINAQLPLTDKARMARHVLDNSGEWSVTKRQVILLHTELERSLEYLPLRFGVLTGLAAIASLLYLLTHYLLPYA
# UniProt O15305: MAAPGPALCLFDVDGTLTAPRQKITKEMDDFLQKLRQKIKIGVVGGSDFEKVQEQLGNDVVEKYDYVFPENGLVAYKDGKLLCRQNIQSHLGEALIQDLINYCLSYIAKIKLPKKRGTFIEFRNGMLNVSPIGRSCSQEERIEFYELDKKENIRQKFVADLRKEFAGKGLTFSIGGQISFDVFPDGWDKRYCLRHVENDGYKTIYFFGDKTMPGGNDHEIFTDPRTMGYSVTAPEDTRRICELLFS
# UniProt O43813, whole entry: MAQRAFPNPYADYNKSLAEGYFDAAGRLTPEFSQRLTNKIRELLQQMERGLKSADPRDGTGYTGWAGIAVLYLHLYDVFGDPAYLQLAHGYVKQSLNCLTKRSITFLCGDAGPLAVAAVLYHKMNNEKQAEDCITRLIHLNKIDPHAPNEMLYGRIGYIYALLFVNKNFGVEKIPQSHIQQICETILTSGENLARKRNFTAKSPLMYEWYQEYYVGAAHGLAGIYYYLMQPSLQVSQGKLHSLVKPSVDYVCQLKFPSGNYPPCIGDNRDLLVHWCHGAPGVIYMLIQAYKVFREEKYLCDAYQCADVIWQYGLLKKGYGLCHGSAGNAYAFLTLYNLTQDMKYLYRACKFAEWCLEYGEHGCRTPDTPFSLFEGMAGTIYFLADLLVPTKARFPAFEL
# UniProt P36776: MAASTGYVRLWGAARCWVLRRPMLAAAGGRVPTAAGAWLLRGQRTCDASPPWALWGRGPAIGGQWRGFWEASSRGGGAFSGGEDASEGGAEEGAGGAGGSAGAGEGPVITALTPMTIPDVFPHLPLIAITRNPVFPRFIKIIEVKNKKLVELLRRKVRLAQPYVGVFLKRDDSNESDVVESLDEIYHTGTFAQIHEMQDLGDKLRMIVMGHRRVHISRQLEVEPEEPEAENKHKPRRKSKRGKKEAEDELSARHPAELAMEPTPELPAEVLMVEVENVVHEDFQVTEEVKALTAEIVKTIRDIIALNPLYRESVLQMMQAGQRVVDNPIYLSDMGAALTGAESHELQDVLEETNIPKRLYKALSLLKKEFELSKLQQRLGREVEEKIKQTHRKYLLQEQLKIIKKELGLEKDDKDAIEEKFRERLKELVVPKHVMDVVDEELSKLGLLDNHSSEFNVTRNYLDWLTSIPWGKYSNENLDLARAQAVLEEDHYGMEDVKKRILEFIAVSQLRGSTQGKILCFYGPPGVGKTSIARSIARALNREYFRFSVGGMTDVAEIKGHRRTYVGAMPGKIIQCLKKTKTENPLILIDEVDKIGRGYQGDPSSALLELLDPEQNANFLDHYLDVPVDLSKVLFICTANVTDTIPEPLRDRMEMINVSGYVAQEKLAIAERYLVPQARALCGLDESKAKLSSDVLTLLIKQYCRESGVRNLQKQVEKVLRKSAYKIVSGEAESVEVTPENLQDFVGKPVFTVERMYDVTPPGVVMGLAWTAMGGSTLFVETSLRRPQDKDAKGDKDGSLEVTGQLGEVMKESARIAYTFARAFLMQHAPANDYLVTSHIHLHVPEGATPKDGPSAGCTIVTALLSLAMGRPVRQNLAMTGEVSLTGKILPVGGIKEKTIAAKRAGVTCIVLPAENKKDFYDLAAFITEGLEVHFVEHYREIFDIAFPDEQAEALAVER
# UniProt O43665: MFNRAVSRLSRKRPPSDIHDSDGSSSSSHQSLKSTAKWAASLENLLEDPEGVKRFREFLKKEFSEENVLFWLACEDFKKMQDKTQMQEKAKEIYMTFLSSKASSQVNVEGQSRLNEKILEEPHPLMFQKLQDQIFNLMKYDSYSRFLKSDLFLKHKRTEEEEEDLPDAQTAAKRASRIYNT
# UniProt O14639: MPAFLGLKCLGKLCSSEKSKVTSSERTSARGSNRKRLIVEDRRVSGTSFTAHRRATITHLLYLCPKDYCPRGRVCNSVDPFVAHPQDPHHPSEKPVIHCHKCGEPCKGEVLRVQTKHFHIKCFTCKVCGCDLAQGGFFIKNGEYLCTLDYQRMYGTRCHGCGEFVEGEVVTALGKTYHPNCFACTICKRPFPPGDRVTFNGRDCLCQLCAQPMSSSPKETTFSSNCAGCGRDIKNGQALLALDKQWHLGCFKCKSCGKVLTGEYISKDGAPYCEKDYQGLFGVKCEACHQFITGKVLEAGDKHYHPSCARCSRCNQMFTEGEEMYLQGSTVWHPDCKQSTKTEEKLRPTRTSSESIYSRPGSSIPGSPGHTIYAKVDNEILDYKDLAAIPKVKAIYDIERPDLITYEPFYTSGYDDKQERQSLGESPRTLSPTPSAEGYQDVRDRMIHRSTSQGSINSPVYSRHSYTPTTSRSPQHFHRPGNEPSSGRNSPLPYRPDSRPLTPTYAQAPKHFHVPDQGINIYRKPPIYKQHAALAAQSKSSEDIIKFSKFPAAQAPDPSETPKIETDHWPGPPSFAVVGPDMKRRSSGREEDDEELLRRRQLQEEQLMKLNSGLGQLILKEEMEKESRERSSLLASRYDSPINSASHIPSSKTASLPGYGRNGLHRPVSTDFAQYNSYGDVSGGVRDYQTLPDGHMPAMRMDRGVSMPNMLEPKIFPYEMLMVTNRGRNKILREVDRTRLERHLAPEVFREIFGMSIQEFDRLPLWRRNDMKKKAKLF
# UniProt Q96EP5: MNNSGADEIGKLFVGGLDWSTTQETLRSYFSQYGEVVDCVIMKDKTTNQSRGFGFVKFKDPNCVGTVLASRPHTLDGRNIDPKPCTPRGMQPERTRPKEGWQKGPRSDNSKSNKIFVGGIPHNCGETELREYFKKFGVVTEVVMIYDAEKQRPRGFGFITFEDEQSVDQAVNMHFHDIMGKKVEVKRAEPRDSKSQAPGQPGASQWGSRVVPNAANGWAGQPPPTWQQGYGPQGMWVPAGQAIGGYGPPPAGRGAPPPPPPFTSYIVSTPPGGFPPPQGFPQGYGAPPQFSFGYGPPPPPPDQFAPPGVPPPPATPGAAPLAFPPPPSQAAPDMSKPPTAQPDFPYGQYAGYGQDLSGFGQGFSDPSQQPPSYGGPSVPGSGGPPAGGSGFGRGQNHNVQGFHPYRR
# UniProt O00148, whole entry: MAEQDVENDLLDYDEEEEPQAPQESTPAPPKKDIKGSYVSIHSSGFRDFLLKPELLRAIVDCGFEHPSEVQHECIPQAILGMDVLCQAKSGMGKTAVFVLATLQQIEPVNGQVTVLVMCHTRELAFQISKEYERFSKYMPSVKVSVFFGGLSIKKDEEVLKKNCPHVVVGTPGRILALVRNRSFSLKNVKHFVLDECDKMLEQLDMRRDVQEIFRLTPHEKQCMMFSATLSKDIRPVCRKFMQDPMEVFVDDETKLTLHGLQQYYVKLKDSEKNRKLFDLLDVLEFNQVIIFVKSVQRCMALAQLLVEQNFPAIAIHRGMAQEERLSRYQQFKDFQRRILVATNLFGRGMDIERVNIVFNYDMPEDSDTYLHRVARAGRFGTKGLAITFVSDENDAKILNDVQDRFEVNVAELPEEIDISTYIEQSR
# UniProt O43633: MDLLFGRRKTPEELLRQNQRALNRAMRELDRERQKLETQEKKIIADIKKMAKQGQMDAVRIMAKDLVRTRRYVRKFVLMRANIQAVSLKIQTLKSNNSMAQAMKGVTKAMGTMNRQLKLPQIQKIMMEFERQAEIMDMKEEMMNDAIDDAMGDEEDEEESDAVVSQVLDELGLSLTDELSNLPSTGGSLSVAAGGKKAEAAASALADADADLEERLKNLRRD
# UniProt O43293: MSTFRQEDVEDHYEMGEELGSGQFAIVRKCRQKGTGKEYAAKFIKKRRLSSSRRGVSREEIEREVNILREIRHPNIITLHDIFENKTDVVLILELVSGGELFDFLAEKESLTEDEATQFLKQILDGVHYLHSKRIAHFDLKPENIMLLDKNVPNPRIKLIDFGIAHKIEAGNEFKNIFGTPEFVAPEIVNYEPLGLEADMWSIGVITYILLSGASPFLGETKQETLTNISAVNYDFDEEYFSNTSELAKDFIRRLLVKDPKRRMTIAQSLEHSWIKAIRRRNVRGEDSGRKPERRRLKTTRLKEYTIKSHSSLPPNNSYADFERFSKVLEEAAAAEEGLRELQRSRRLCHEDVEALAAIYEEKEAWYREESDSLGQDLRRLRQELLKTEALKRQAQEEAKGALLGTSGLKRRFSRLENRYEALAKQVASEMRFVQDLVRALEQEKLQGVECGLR
# Compound: Nc1ncnc2c1ncn2[C@@H]1O[C@H](COP(=O)(O)OP(=O)(O)NP(=O)(O)O)[C@@H](O)[C@H]1O [adenylyl imidodiphosphate]
# Test: NP40-soluble protein abundance relative to vehicle (solubility fold change) (ratio); higher = more soluble protein in presence of AMP-PNP
# Summary of the method: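 Crude Jurkat lysate, prepared by Dounce homogenisation, was exposed to eight concentrations from 0.1 to 10 mM for 10 min at room temperature and then 3 min at 37 °C. Solubilisation used 0.8% NP40 with benzonase for 60 min at 4 °C, followed by ultracentrifugation and TMT labelling of the supernatant for LC-MS/MS. After vsn normalisation of intensities, each value is the fold change against the detergent-processed vehicle within each replicate, across three independent experiments.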
target,measurement,setting,value
DYNC1LI2 (UniProt O43237),NP40-soluble protein abundance,concentration: 1mM,1.02 ± 0.057
same,NP40-soluble protein abundance,concentration: 2mM,1.046 ± 0.0086
same,NP40-soluble protein abundance,concentration: 4mM,1.01 ± 0.055
same,NP40-soluble protein abundance,concentration: 6mM,0.993 ± 0.11
same,NP40-soluble protein abundance,concentration: 8mM,0.963 ± 0.066
same,NP40-soluble protein abundance,concentration: 10mM,0.982 ± 0.076
DNM1L (UniProt O00429),NP40-soluble protein abundance,concentration: 1mM,0.982 ± 0.0091
same,NP40-soluble protein abundance,concentration: 2mM,0.9646 ± 0.0086
same,NP40-soluble protein abundance,concentration: 4mM,0.959 ± 0.029
same,NP40-soluble protein abundance,concentration: 6mM,0.969 ± 0.038
same,NP40-soluble protein abundance,concentration: 8mM,0.959 ± 0.033
same,NP40-soluble protein abundance,concentration: 10mM,0.95 ± 0.035
STXBP3 (UniProt O00186),NP40-soluble protein abundance,concentration: 1mM,1.03 ± 0.014
same,NP40-soluble protein abundance,concentration: 2mM,1.01 ± 0.04
same,NP40-soluble protein abundance,concentration: 4mM,1.01 ± 0.041
same,NP40-soluble protein abundance,concentration: 6mM,1.02 ± 0.024
same,NP40-soluble protein abundance,concentration: 8mM,1.01 ± 0.034
same,NP40-soluble protein abundance,concentration: 10mM,1.02 ± 0.052
K7ELQ0 and related entries (UniProt Q9BYD3),NP40-soluble protein abundance,concentration: 1mM,0.995 ± 0.037
same,NP40-soluble protein abundance,concentration: 2mM,0.97 ± 0.033
same,NP40-soluble protein abundance,concentration: 4mM,0.975 ± 0.058
same,NP40-soluble protein abundance,concentration: 6mM,0.986 ± 0.033
same,NP40-soluble protein abundance,concentration: 8mM,0.998 ± 0.055
same,NP40-soluble protein abundance,concentration: 10mM,0.993 ± 0.049
UniProt O14523 and related entries,NP40-soluble protein abundance,concentration: 1mM,0.973 ± 0.015
same,NP40-soluble protein abundance,concentration: 2mM,0.988 ± 0.013
same,NP40-soluble protein abundance,concentration: 4mM,0.985 ± 0.037
same,NP40-soluble protein abundance,concentration: 6mM,0.968 ± 0.027
same,NP40-soluble protein abundance,concentration: 8mM,0.97 ± 0.047
same,NP40-soluble protein abundance,concentration: 10mM,1.01 ± 0.06
K7ESP4 and related entries (UniProt Q8WVC6),NP40-soluble protein abundance,concentration: 1mM,1.05 ± 0.019
same,NP40-soluble protein abundance,concentration: 2mM,1.04 ± 0.079
same,NP40-soluble protein abundance,concentration: 4mM,1.07 ± 0.026
same,NP40-soluble protein abundance,concentration: 6mM,1.08 ± 0.012
same,NP40-soluble protein abundance,concentration: 8mM,1.06 ± 0.04
same,NP40-soluble protein abundance,concentration: 10mM,1.1 ± 0.04
PMM2 (UniProt O15305),NP40-soluble protein abundance,concentration: 1mM,1.02 ± 0.027
same,NP40-soluble protein abundance,concentration: 2mM,0.98 ± 0.078
same,NP40-soluble protein abundance,concentration: 4mM,0.981 ± 0.041
same,NP40-soluble protein abundance,concentration: 6mM,0.972 ± 0.029
same,NP40-soluble protein abundance,concentration: 8mM,0.961 ± 0.026
same,NP40-soluble protein abundance,concentration: 10mM,0.948 ± 0.072
UniProt O43813 and related entries,NP40-soluble protein abundance,concentration: 1mM,0.945 ± 0.034
same,NP40-soluble protein abundance,concentration: 2mM,0.901 ± 0.038
same,NP40-soluble protein abundance,concentration: 4mM,0.962 ± 0.025
same,NP40-soluble protein abundance,concentration: 6mM,0.996 ± 0.059
same,NP40-soluble protein abundance,concentration: 8mM,1.02 ± 0.033
same,NP40-soluble protein abundance,concentration: 10mM,0.9804 ± 0.0073
K7EKE6 and related entries (UniProt P36776),NP40-soluble protein abundance,concentration: 1mM,0.9487 ± 0.007
same,NP40-soluble protein abundance,concentration: 2mM,0.907 ± 0.057
same,NP40-soluble protein abundance,concentration: 4mM,0.94 ± 0.023
same,NP40-soluble protein abundance,concentration: 6mM,0.925 ± 0.015
same,NP40-soluble protein abundance,concentration: 8mM,0.92 ± 0.026
same,NP40-soluble protein abundance,concentration: 10mM,0.913 ± 0.046
UniProt O43665 and related entries,NP40-soluble protein abundance,concentration: 1mM,0.9422 ± 0.0088
same,NP40-soluble protein abundance,concentration: 2mM,0.977 ± 0.047
same,NP40-soluble protein abundance,concentration: 4mM,0.911 ± 0.026
same,NP40-soluble protein abundance,concentration: 6mM,0.895 ± 0.012
same,NP40-soluble protein abundance,concentration: 8mM,0.887 ± 0.04
same,NP40-soluble protein abundance,concentration: 10mM,0.836 ± 0.011
UniProt O14639 and related entries,NP40-soluble protein abundance,concentration: 1mM,1.02 ± 0.024
same,NP40-soluble protein abundance,concentration: 2mM,1.06 ± 0.037
same,NP40-soluble protein abundance,concentration: 4mM,1.049 ± 0.0085
same,NP40-soluble protein abundance,concentration: 6mM,1.05 ± 0.039
same,NP40-soluble protein abundance,concentration: 8mM,1.06 ± 0.047
same,NP40-soluble protein abundance,concentration: 10mM,1.07 ± 0.095
PLRG1 (UniProt O43660),NP40-soluble protein abundance,concentration: 1mM,1.07 ± 0.03
same,NP40-soluble protein abundance,concentration: 2mM,1.1 ± 0.031
same,NP40-soluble protein abundance,concentration: 4mM,1.14 ± 0.033
same,NP40-soluble protein abundance,concentration: 6mM,1.13 ± 0.085
same,NP40-soluble protein abundance,concentration: 8mM,1.17 ± 0.049
same,NP40-soluble protein abundance,concentration: 10mM,1.21 ± 0.089
UniProt O43379-4|O43379,NP40-soluble protein abundance,concentration: 1mM,0.995 ± 0.045
same,NP40-soluble protein abundance,concentration: 2mM,0.977 ± 0.027
same,NP40-soluble protein abundance,concentration: 4mM,0.977 ± 0.046
same,NP40-soluble protein abundance,concentration: 6mM,0.948 ± 0.056
same,NP40-soluble protein abundance,concentration: 8mM,0.921 ± 0.06
same,NP40-soluble protein abundance,concentration: 10mM,0.91 ± 0.073
CLIC1 (UniProt O00299),NP40-soluble protein abundance,concentration: 1mM,1.01 ± 0.015
same,NP40-soluble protein abundance,concentration: 2mM,1.05 ± 0.099
same,NP40-soluble protein abundance,concentration: 4mM,1.02 ± 0.066
same,NP40-soluble protein abundance,concentration: 6mM,1.1 ± 0.091
same,NP40-soluble protein abundance,concentration: 8mM,1.03 ± 0.15
same,NP40-soluble protein abundance,concentration: 10mM,1.12 ± 0.14
K7EK33 and related entries (UniProt Q96EP5),NP40-soluble protein abundance,concentration: 1mM,1.05 ± 0.027
same,NP40-soluble protein abundance,concentration: 2mM,1.1 ± 0.055
same,NP40-soluble protein abundance,concentration: 4mM,1.04 ± 0.041
same,NP40-soluble protein abundance,concentration: 6mM,1.021 ± 0.0074
same,NP40-soluble protein abundance,concentration: 8mM,1.02 ± 0.034
same,NP40-soluble protein abundance,concentration: 10mM,1.02 ± 0.054
MRPS12 (UniProt O15235),NP40-soluble protein abundance,concentration: 1mM,0.946 ± 0.068
same,NP40-soluble protein abundance,concentration: 2mM,0.896 ± 0.069
same,NP40-soluble protein abundance,concentration: 4mM,0.945 ± 0.14
same,NP40-soluble protein abundance,concentration: 6mM,1.01 ± 0.1
same,NP40-soluble protein abundance,concentration: 8mM,1.01 ± 0.14
same,NP40-soluble protein abundance,concentration: 10mM,1.05 ± 0.25
UniProt O00148,NP40-soluble protein abundance,concentration: 1mM,0.966 ± 0.038
same,NP40-soluble protein abundance,concentration: 2mM,0.903 ± 0.064
same,NP40-soluble protein abundance,concentration: 4mM,0.9432 ± 0.0072
same,NP40-soluble protein abundance,concentration: 6mM,0.981 ± 0.037
same,NP40-soluble protein abundance,concentration: 8mM,0.996 ± 0.022
same,NP40-soluble protein abundance,concentration: 10mM,0.9943 ± 0.0093
UniProt O00499-2|O00499-4|O00499-6|O00499-7|O00499-9,NP40-soluble protein abundance,concentration: 1mM,1.016 ± 0.0054
same,NP40-soluble protein abundance,concentration: 2mM,1.07 ± 0.046
same,NP40-soluble protein abundance,concentration: 4mM,1.04 ± 0.041
same,NP40-soluble protein abundance,concentration: 6mM,1.01 ± 0.016
same,NP40-soluble protein abundance,concentration: 8mM,0.97 ± 0.018
same,NP40-soluble protein abundance,concentration: 10mM,1 ± 0.062
CHMP2A (UniProt O43633),NP40-soluble protein abundance,concentration: 1mM,0.949 ± 0.013
same,NP40-soluble protein abundance,concentration: 2mM,1.02 ± 0.094
same,NP40-soluble protein abundance,concentration: 4mM,0.936 ± 0.021
same,NP40-soluble protein abundance,concentration: 6mM,0.966 ± 0.043
same,NP40-soluble protein abundance,concentration: 8mM,0.971 ± 0.031
same,NP40-soluble protein abundance,concentration: 10mM,0.915 ± 0.078
DAPK3 (UniProt O43293),NP40-soluble protein abundance,concentration: 1mM,0.987 ± 0.012
same,NP40-soluble protein abundance,concentration: 2mM,0.9883 ± 0.006
same,NP40-soluble protein abundance,concentration: 4mM,0.982 ± 0.026
same,NP40-soluble protein abundance,concentration: 6mM,1.01 ± 0.021
same,NP40-soluble protein abundance,concentration: 8mM,0.999 ± 0.018
same,NP40-soluble protein abundance,concentration: 10mM,1 ± 0.025
M0QYS1 and related entries (UniProt P40429),NP40-soluble protein abundance,concentration: 1mM,1.01 ± 0.071
same,NP40-soluble protein abundance,concentration: 2mM,1 ± 0.023
same,NP40-soluble protein abundance,concentration: 4mM,0.954 ± 0.066
same,NP40-soluble protein abundance,concentration: 6mM,0.911 ± 0.046
same,NP40-soluble protein abundance,concentration: 8mM,0.832 ± 0.0099
same,NP40-soluble protein abundance,concentration: 10mM,0.934 ± 0.11

# As a working copy, part of the list above:
target,measurement,setting,value
UniProt O14639 and related entries,NP40-soluble protein abundance,concentration: 2mM,1.06 ± 0.037
same,NP40-soluble protein abundance,concentration: 4mM,1.049 ± 0.0085
same,NP40-soluble protein abundance,concentration: 6mM,1.05 ± 0.039
same,NP40-soluble protein abundance,concentration: 8mM,1.06 ± 0.047
same,NP40-soluble protein abundance,concentration: 10mM,1.07 ± 0.095
PLRG1 (UniProt O43660),NP40-soluble protein abundance,concentration: 1mM,1.07 ± 0.03
same,NP40-soluble protein abundance,concentration: 2mM,1.1 ± 0.031

# Fetched one by one from the list above:
target,measurement,setting,value
UniProt O43665 and related entries,NP40-soluble protein abundance,concentration: 4mM,0.911 ± 0.026
K7ESP4 and related entries (UniProt Q8WVC6),NP40-soluble protein abundance,concentration: 2mM,1.04 ± 0.079

# — the supplement of paper PMC6411743
